From the supplement of paper PMC12823440, “Inhibitors supercharge kinase turnover through native proteolytic circuits” (Nature, 2025)
Structures can show the parent of a compound that is named as a salt. This is one part of the list. Hit calls seldom repeat between salt and free forms of one compound.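 Kinases, fused to nanoluciferase, were expressed in K562 cells; luminescence was measured every 4 h from 2 to 18 h as percent of control (DMSO = 100%, positive control = 0%). A time point is decreased if signal falls significantly (2 sigma). Hits were called by the authors by a rule that is not shown; the count of time points alone does not decide it.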

By UniProt entry, the sequences of proteins in these tests, tags left out. Where a name states a change or a piece, a line headed by the entry shows the natural chain unless it says otherwise.
UniProt Q06187: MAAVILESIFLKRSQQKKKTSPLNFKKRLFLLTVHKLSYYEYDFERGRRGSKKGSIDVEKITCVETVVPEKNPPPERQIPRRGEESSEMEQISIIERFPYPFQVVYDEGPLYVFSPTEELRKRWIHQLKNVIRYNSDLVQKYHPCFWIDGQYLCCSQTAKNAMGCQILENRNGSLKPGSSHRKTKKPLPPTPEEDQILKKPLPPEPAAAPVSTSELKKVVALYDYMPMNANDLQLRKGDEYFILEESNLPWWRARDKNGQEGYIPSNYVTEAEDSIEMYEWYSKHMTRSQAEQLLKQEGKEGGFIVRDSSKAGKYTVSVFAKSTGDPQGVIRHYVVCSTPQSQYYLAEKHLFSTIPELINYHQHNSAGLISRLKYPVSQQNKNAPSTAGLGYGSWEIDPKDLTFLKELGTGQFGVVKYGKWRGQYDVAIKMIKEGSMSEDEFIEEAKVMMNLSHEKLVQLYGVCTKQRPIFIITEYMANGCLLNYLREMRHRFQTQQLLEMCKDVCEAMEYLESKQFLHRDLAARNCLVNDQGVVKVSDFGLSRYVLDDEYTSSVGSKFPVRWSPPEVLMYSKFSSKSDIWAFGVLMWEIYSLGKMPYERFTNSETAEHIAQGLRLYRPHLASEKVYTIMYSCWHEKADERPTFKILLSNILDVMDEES
UniProt Q9UQM7, whole entry: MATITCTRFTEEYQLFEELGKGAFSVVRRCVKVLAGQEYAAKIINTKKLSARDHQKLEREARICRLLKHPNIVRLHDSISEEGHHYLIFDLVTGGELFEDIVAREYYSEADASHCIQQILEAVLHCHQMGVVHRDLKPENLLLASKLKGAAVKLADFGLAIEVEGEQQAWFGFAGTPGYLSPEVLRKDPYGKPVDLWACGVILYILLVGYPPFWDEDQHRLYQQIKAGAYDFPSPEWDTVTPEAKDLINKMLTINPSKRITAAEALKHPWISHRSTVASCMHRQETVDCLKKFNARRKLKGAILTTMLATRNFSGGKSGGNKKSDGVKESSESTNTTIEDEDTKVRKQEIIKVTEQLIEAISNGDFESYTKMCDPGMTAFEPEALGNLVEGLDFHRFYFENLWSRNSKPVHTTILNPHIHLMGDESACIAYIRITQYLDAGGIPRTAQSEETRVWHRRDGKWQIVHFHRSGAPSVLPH
UniProt Q13555: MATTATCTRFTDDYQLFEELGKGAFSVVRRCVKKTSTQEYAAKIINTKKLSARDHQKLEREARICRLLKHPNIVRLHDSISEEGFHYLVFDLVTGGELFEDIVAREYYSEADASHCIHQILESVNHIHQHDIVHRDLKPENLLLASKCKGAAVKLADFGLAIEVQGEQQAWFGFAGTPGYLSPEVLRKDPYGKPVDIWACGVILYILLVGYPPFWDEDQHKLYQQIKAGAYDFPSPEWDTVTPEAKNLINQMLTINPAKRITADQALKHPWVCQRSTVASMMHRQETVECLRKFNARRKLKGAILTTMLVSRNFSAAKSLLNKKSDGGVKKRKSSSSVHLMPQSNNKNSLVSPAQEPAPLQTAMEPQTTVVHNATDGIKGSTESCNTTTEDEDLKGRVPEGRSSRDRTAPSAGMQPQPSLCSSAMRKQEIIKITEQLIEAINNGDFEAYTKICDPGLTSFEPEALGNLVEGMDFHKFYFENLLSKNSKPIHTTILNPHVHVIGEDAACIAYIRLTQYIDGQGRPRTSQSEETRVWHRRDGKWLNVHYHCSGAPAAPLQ
UniProt Q15131: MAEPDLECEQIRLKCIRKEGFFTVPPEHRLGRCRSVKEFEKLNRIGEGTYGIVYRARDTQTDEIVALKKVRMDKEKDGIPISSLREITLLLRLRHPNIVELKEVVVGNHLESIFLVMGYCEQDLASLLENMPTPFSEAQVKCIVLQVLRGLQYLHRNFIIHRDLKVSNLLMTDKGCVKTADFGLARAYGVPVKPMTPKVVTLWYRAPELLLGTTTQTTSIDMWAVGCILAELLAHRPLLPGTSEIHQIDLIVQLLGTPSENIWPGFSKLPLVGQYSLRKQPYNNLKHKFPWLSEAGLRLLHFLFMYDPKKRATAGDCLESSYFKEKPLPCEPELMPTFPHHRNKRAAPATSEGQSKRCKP
UniProt Q00526: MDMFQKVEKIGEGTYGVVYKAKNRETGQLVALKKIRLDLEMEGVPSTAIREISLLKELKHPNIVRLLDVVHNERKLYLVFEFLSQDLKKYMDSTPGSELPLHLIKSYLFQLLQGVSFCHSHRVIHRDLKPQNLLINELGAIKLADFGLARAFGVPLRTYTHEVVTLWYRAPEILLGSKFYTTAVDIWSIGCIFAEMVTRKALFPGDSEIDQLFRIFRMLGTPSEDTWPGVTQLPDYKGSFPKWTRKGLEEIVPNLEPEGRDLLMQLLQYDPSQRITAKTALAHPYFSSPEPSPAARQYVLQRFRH
UniProt P11802: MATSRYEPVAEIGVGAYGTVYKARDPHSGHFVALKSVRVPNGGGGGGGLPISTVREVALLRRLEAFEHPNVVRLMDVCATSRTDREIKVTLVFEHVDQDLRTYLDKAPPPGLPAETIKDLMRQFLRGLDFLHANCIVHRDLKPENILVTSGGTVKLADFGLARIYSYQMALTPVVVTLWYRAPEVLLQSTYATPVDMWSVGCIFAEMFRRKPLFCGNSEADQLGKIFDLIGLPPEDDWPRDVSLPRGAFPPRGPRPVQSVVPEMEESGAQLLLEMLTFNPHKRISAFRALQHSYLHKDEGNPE
UniProt Q00535, whole entry, looked up: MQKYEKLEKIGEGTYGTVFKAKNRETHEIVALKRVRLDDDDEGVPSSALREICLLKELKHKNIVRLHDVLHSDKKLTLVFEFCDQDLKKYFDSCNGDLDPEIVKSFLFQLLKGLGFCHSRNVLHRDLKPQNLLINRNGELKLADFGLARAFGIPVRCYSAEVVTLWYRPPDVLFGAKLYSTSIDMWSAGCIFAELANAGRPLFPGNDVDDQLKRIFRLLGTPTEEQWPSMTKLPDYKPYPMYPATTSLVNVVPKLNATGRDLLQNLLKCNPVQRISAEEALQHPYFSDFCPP
UniProt Q00534, whole entry: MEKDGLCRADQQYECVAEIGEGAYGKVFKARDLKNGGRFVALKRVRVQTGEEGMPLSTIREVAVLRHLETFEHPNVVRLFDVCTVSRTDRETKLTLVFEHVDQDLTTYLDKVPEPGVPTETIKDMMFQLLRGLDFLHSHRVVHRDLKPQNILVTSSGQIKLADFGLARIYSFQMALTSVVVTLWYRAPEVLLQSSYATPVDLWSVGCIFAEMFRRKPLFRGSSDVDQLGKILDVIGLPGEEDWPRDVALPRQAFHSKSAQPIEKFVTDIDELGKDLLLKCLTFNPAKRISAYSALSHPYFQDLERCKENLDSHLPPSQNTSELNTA

How the values were obtained:
Experiment in all cases: kinase-Nluc reporter destabilization hit call (1 = scored as downregulated) (binary); higher = compound decreases kinase abundance
Details in all cases: K562, 2-18 h
BRAF_V600E = test system: BRAF_V600E
BTK = BTK (UniProt Q06187)
CAMK2A = CAMK2A (UniProt Q9UQM7)
CAMK2G = CAMK2G (UniProt Q13555)
CDK10 = CDK10 (UniProt Q15131)
CDK2 = CDK2 (UniProt P24941)
CDK3 = CDK3 (UniProt Q00526)
CDK4 = CDK4 (UniProt P11802)
CDK5 = CDK5 (UniProt Q00535)
CDK6 = CDK6 (UniProt Q00534)

Measured: kinase-Nluc reporter destabilization hit call

CN1CCN(c2nc(C3=C(c4c[nH]c5ccccc45)C(=O)NC3=O)c3ccccc3n2)CC1 [Sotrastaurin]
inactive: BRAF_V600E; 2.5 µM 0 | BTK; 2.5 µM 0 | CAMK2A; 2.5 µM 0 | CAMK2G; 2.5 µM 0 | CDK10; 2.5 µM 0 | CDK2; 2.5 µM 0 | CDK3; 2.5 µM 0 | CDK4; 2.5 µM 0 | CDK5; 2.5 µM 0 | CDK6; 2.5 µM 0

O=C(Nc1cccc(Cl)c1)Nc1ncc(CCNc2ncnc3ccsc23)s1 [SNS-314 (mesylate)]
inactive: BRAF_V600E; 10 µM 0 | BTK; 10 µM 0 | CAMK2A; 10 µM 0 | CAMK2G; 10 µM 0 | CDK10; 10 µM 0 | CDK2; 10 µM 0 | CDK3; 10 µM 0 | CDK4; 10 µM 0 | CDK5; 10 µM 0 | CDK6; 10 µM 0

CN(c1ccnc(Nc2cc(N3CCOCC3)cc(N3CCOCC3)c2)n1)c1cccc2[nH]ncc12
inactive: BRAF_V600E; 2.5 µM 0

Cn1cc(/C=C2\C(=O)Nc3cccnc32)c2ccccc21
inactive: BRAF_V600E; 10 µM 0 | BTK; 10 µM 0 | CAMK2A; 10 µM 0 | CAMK2G; 10 µM 0 | CDK10; 10 µM 0 | CDK2; 10 µM 0 | CDK3; 10 µM 0 | CDK4; 10 µM 0 | CDK5; 10 µM 0 | CDK6; 10 µM 0

C[C@@H]1C[C@H](N)C[C@H](c2ccncc2NC(=O)c2ccc(F)c(-c3c(F)cccc3F)n2)C1 [PIM-447 (dihydrochloride)]
inactive: BRAF_V600E; 10 µM 0

Fc1ccc(-c2nc(-c3ccc4ccccc4c3F)[nH]c2-c2ccncc2)cc1
inactive: BTK; 10 µM 0 | CAMK2A; 10 µM 0 | CAMK2G; 10 µM 0 | CDK2; 10 µM 0 | CDK3; 10 µM 0 | CDK4; 10 µM 0 | CDK5; 10 µM 0 | CDK6; 10 µM 0
active: BRAF_V600E; 10 µM 1 | CDK10; 10 µM 1

O=C(N[C@H]1CCc2cc(F)cc(F)c2NC1=O)c1n[nH]c(Cc2ccccc2)n1
inactive: BRAF_V600E; 10 µM 0

Cc1ccc(-n2nc(C(C)(C)C)cc2NC(=O)Nc2ccc(OCCN3CCOCC3)c3ccccc23)cc1 [Doramapimod]
inactive: BRAF_V600E; 10 µM 0 | BTK; 10 µM 0 | CAMK2A; 10 µM 0 | CAMK2G; 10 µM 0 | CDK10; 10 µM 0 | CDK2; 10 µM 0 | CDK3; 10 µM 0 | CDK4; 10 µM 0 | CDK5; 10 µM 0 | CDK6; 10 µM 0

CC1(C)CNc2cc(NC(=O)c3cccnc3NCc3ccncc3)ccc21 [Motesanib]
inactive: BRAF_V600E; 2.5 µM 0 | BTK; 2.5 µM 0 | CAMK2A; 2.5 µM 0 | CAMK2G; 2.5 µM 0 | CDK10; 2.5 µM 0 | CDK2; 2.5 µM 0 | CDK3; 2.5 µM 0 | CDK4; 2.5 µM 0 | CDK5; 2.5 µM 0 | CDK6; 2.5 µM 0

Cc1cc(Nc2cc(N3CCN(C)CC3)nc(/C=C/c3ccccc3)n2)n[nH]1 [ENMD-2076 (Tartrate)]
inactive: BRAF_V600E; 2.5 µM 0 | BTK; 2.5 µM 0 | CAMK2A; 2.5 µM 0 | CAMK2G; 2.5 µM 0 | CDK10; 2.5 µM 0 | CDK2; 2.5 µM 0 | CDK3; 2.5 µM 0 | CDK4; 2.5 µM 0 | CDK5; 2.5 µM 0 | CDK6; 2.5 µM 0

Cc1[nH]c(/C=C2\C(=O)Nc3ccc(F)cc32)c(C)c1C(=O)NC[C@H](O)CN1CCOCC1
active: CDK6; 2.5 µM 1
inactive: BRAF_V600E; 2.5 µM 0 | BTK; 2.5 µM 0 | CAMK2A; 2.5 µM 0 | CAMK2G; 2.5 µM 0 | CDK10; 2.5 µM 0 | CDK2; 2.5 µM 0 | CDK3; 2.5 µM 0 | CDK4; 2.5 µM 0 | CDK5; 2.5 µM 0

CCOc1cc2ncc(C#N)c(Nc3ccc(F)c(Cl)c3)c2cc1NC(=O)/C=C/CN(C)C [Pelitinib]
inactive: BRAF_V600E; 2.5 µM 0 | BTK; 2.5 µM 0 | CAMK2A; 2.5 µM 0 | CAMK2G; 2.5 µM 0 | CDK10; 2.5 µM 0 | CDK2; 2.5 µM 0 | CDK3; 2.5 µM 0 | CDK4; 2.5 µM 0 | CDK5; 2.5 µM 0 | CDK6; 2.5 µM 0

C[C@H]1Oc2cc(cnc2N)-c2c(nn(C)c2C#N)CN(C)C(=O)c2ccc(F)cc21 [Lorlatinib]
inactive: BRAF_V600E; 10 µM 0 | BTK; 10 µM 0 | CAMK2A; 10 µM 0 | CAMK2G; 10 µM 0 | CDK10; 10 µM 0 | CDK2; 10 µM 0 | CDK3; 10 µM 0 | CDK4; 10 µM 0 | CDK5; 10 µM 0 | CDK6; 10 µM 0

O=S(=O)(c1cccc2c(O)nccc12)N1CCCNCC1 [Hydroxyfasudil]
inactive: BRAF_V600E; 10 µM 0 | BTK; 10 µM 0 | CAMK2A; 10 µM 0 | CAMK2G; 10 µM 0 | CDK10; 10 µM 0 | CDK2; 10 µM 0 | CDK3; 10 µM 0 | CDK4; 10 µM 0 | CDK5; 10 µM 0 | CDK6; 10 µM 0

Random excerpt: two records from the list.
Cc1cc(Nc2cc(N3CCN(C)CC3)nc(/C=C/c3ccccc3)n2)n[nH]1 [ENMD-2076 (Tartrate)]
inactive: BRAF_V600E; 2.5 µM 0 | BTK; 2.5 µM 0 | CAMK2A; 2.5 µM 0 | CAMK2G; 2.5 µM 0 | CDK10; 2.5 µM 0 | CDK2; 2.5 µM 0 | CDK3; 2.5 µM 0 | CDK4; 2.5 µM 0 | CDK5; 2.5 µM 0 | CDK6; 2.5 µM 0

CC1(C)CNc2cc(NC(=O)c3cccnc3NCc3ccncc3)ccc21 [Motesanib]
inactive: BRAF_V600E; 2.5 µM 0 | BTK; 2.5 µM 0 | CAMK2A; 2.5 µM 0 | CAMK2G; 2.5 µM 0 | CDK10; 2.5 µM 0 | CDK2; 2.5 µM 0 | CDK3; 2.5 µM 0 | CDK4; 2.5 µM 0 | CDK5; 2.5 µM 0 | CDK6; 2.5 µM 0

The results go on.

C=CC(=O)Nc1cc2c(Nc3ccc(F)c(Cl)c3)ncnc2cc1OCCCN1CCOCC1 [Canertinib (dihydrochloride)]
inactive: BRAF_V600E; 2.5 µM 0 | BTK; 2.5 µM 0 | CAMK2A; 2.5 µM 0 | CAMK2G; 2.5 µM 0 | CDK10; 2.5 µM 0 | CDK2; 2.5 µM 0 | CDK3; 2.5 µM 0 | CDK4; 2.5 µM 0 | CDK5; 2.5 µM 0 | CDK6; 2.5 µM 0

C=CC(=O)N1C[C@@H](Nc2ncnc3[nH]ccc23)CC[C@H]1C [(2R,5S)-Ritlecitinib]
inactive: BRAF_V600E; 10 µM 0 | BTK; 10 µM 0 | CAMK2A; 10 µM 0 | CAMK2G; 10 µM 0 | CDK10; 10 µM 0 | CDK2; 10 µM 0 | CDK3; 10 µM 0 | CDK4; 10 µM 0 | CDK5; 10 µM 0 | CDK6; 10 µM 0

COc1cc2ncnc(Nc3ccc(F)c(Cl)c3)c2cc1OCCCN1CCOCC1 [Gefitinib]
inactive: BRAF_V600E; 10 µM 0 | BTK; 10 µM 0 | CAMK2A; 10 µM 0 | CAMK2G; 10 µM 0 | CDK10; 10 µM 0 | CDK2; 10 µM 0 | CDK3; 10 µM 0 | CDK4; 10 µM 0 | CDK5; 10 µM 0 | CDK6; 10 µM 0
